Experimental data: PubChem BioAssay AID493246 (Drosophila RNAi Screening Center, 2011)

Screen: 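Identify essential fly genes by loss of cell viability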 (primary screen)
System: Drosophila Kc and S2R+ cells
Reagent: long dsRNA against Drosophila genes
Read-out: 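Cell number per well after knock-down, printed as raw plate values; calls were based on per-plate z-scores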
Direction: Kc cell number and S2R+ cell number: higher = more cells remaining
Rule for the call: 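Active when the per-plate z-score of cell number is 3 or more in the direction of fewer cells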
The screen tested about 21,000 reagents; shown is a random part of those that have a named target and a result. Over the whole deposit, 429 (2%) got an active call. 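Values are raw and not normalised between plates; calls rest on per-plate z-scores that were not deposited.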 Unmarked entries are inactive. Names joined by + are all predicted targets of the reagent. No sequences are given here. Not given: the amount of reagent, the time to read-out.

| target | DRSC id | Kc cell number, rep 1 | Kc cell number, rep 2 | S2R+ cell number, rep 1 | S2R+ cell number, rep 2 |
| --- | --- | --- | --- | --- | --- |
| Flad1 | DRSC19898 | 5.86e5 | – | 8.59e5 | – |
| Polr2H | DRSC11642 | 1.65e6 | 1.77e6 | 9.99e5 | 1.03e6 |
| CG3829 | DRSC04423 | 1.39e6 | 1.49e6 | 1.07e6 | 1.11e6 |
| Lsp2 | DRSC09841 | 1.73e6 | 1.69e6 | 1.40e6 | 1.51e6 |
| Lsp2 | DRSC11216 | 1.57e6 | 1.50e6 | 1.34e6 | 1.46e6 |
| tsu | DRSC07265 | 1.67e6 | 1.86e6 | 1.23e6 | 1.39e6 |
| CG13747 | DRSC06418 | 1.48e6 | 1.52e6 | 1.21e6 | 1.33e6 |
| CG34034 | DRSC13506 | 1.44e6 | 1.45e6 | 1.03e6 | 1.13e6 |
| CG31051 | DRSC15034 | 5.28e5 | – | 1.00e6 | – |
| CG43066 | DRSC06927 | 1.39e6 | 1.38e6 | 1.17e6 | 1.22e6 |
| CG17364 | DRSC10269 | 1.75e6 | 1.71e6 | 1.34e6 | 1.48e6 |
| CG17364 | DRSC10270 | 1.33e6 | 1.38e6 | 1.03e6 | 1.16e6 |
| CG5455 | DRSC15805 | 5.05e5 | – | 7.71e5 | – |
| Fis1 | DRSC07772 | 1.44e6 | 1.41e6 | 1.07e6 | 1.29e6 |
| CG1924 | DRSC19823 | 1.64e6 | 1.71e6 | 1.10e6 | 1.25e6 |
| CG12123 | DRSC17818 | 6.18e5 | – | 8.83e5 | – |
| CG11333 | DRSC14301 | 1.64e6 | 1.61e6 | 9.71e5 | 1.13e6 |
| mAcon1 | DRSC01853 | 1.84e6 | 1.94e6 | 1.52e6 | 4.13e5 |
| Pstk + CG14210 + Tim9b | DRSC19566 | 1.44e6 | 1.43e6 | 8.44e5 | 9.86e5 |
| kumpel | DRSC14883 | 1.45e6 | 1.55e6 | 1.02e6 | 1.10e6 |
| kumpel | DRSC16459 | 1.54e6 | 1.70e6 | 1.04e6 | 1.11e6 |
| kumpel | DRSC16460 | 1.52e6 | 1.73e6 | 1.05e6 | 1.14e6 |
| kumpel | DRSC16461 | 1.80e6 | 1.70e6 | 1.03e6 | 1.13e6 |
| kumpel | DRSC16462 | 1.67e6 | 1.63e6 | 1.00e6 | 1.17e6 |
| kumpel | DRSC16463 | 1.50e6 | 1.53e6 | 1.01e6 | 1.13e6 |

Individual results from above:
kumpel [DRSC16463], S2R+ cell number, rep 1 → 1.01e6
Fis1 [DRSC07772], Kc cell number, rep 2 → 1.41e6
mAcon1 [DRSC01853], Kc cell number, rep 2: 1.94e6
